Measured values published in article doi:10.1101/2025.10.29.685433.
Where two headings read alike, the source gives them in different places. These are yes or no findings as the source states them, for the method shown. Some results given as binding are weak or reduced against the parent protein; the word gives no strength. For some of these results: Tags and fused reporters may be left off the sequences shown.

Chains of the proteins cited; added tags and fusions are not shown. Lines headed by an entry give the natural chain unless they say otherwise; changes in a name come on top.
UniProt Q12522: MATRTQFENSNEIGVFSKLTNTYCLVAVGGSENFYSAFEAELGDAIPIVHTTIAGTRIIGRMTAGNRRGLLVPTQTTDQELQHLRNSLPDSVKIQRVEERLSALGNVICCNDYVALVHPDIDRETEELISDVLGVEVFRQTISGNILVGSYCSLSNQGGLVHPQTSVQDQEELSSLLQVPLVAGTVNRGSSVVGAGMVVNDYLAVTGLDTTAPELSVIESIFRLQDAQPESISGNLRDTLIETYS
UniProt P0CX82: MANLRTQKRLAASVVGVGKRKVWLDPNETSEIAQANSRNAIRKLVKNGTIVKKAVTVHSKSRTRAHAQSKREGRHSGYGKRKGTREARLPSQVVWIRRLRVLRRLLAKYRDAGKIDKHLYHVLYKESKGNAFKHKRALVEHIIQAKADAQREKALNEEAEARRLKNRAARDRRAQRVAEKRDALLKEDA
UniProt P04456: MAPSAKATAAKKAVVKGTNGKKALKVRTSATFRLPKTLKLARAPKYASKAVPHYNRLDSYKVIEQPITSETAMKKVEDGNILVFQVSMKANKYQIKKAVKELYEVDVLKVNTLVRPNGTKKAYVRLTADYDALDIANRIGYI

T1: uL16 P-site loop mutant (uL16^mut), C-terminally Flag-tagged (yeast (S. cerevisiae)) (UniProt P41805)
T1 sequence: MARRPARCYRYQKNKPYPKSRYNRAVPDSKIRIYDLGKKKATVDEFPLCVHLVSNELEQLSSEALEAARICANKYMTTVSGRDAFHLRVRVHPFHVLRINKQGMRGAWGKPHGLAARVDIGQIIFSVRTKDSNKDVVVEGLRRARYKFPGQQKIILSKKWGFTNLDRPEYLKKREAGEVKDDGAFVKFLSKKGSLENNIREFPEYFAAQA

B1: Reh1 (protein, UniProt Q06709 1-432)
chain: MSSTFFTCNCCVIQFKTSDLQRYHMKTEWHRYNLKRRIANLPPIGAEQFAEKLQISEKEQAENQVDEFGFPVLKPVMNQSNALPQKQKKPIKSKRGRKVGTNLLKRKDRDIAKEKQNRSVSPSGSISSQLSNLTVGTENTNTDYGEDTVSEYGFTSDSNYEYATSDEELDIADKPSDKENEKITITECIYCGKDNKEVERNVKHMFSEHGLFIPERSYLIDLNGLLEFLIKMIVIDHNCLCCNFHGSGLESIRAHMASKRHCRLPYETKEERQLFAPFYDFTYDDHSISKNLQNDRAITSKLSSVYGAKNDEEDGEVDITLVSSENDINANYTTVSIDESGLELTLPTGARLGHRAGQRYYRQNLPSQPNPNESRRTITAADRRMVSGVTEKQYKKGMKKMQQLEKNAINTQIRREIKRVNFQTHYRDELLQ
B2: Nmd3-Y379D (protein, UniProt P38861 1-518)
chain: MEFTPIDPHQHQNAATLLCCNCGTPIDGSTGLVMCYDCIKLTVDITQGIPREANISFCRNCERFLQPPGQWIRAELESRELLAICLRRLKGLTKVRLVDASFIWTEPHSRRIRIKLTVQGEAMTNTIIQQTFEVEYIVIAMQCPDCARSYTTNTWRATVQIRQKVPHKRTFLFLEQLILKHNAHVDTISISEAKDGLDFFYAQKNHAVKMIDFLNAVVPIKHKKSEELISQDTHTGASTYKFSYSVEIVPICKDDLVVLPKKLAKSMGNISQFVLCSKISNTVQFMDPTTLQTADLSPSVYWRAPFNALADVTQLVEFIVLDVDSTGISRGNRVLADITVARTSDLGVNDQVYYVRSHLGGICHAGDSVMGYFIANSNDNSDLFDGLNIDYVPDVVLVKKLYQRKSKKSRHWKLKRMAKEHKDIDASLDYNSRAQKQEMERAEKDYELFLQELEEDAELRQSVNLYKNREANVPPEEHEMDEDEDEDAPQINIDELLDELDEMTLEDGVENTPVESQQ
B3: Nmd3 (protein, UniProt P38861 1-518)
chain: MEFTPIDPHQHQNAATLLCCNCGTPIDGSTGLVMCYDCIKLTVDITQGIPREANISFCRNCERFLQPPGQWIRAELESRELLAICLRRLKGLTKVRLVDASFIWTEPHSRRIRIKLTVQGEAMTNTIIQQTFEVEYIVIAMQCPDCARSYTTNTWRATVQIRQKVPHKRTFLFLEQLILKHNAHVDTISISEAKDGLDFFYAQKNHAVKMIDFLNAVVPIKHKKSEELISQDTHTGASTYKFSYSVEIVPICKDDLVVLPKKLAKSMGNISQFVLCSKISNTVQFMDPTTLQTADLSPSVYWRAPFNALADVTQLVEFIVLDVDSTGISRGNRVLADITVARTSDLGVNDQVYYVRSHLGGICHAGDSVMGYFIANSNYNSDLFDGLNIDYVPDVVLVKKLYQRKSKKSRHWKLKRMAKEHKDIDASLDYNSRAQKQEMERAEKDYELFLQELEEDAELRQSVNLYKNREANVPPEEHEMDEDEDEDAPQINIDELLDELDEMTLEDGVENTPVESQQ
B4: Yvh1 (protein, UniProt Q02256 1-364)
chain: MAGNANSVDEEVTRILGGIYLGGIRPIIDHRPLGAEFNITHILSVIKFQVIPEYLIRKGYTLKNIPIDDDDVTDVLQYFDETNRFIDQCLFPNEVEYSPRLVDFKKKPQRGAVFAHCQAGLSRSVTFIVAYLMYRYGLSLSMAMHAVKRKKPSVEPNENFMEQLHLFEKMGGDFVDFDNPAYKQWKLKQSIKLDPSGSELVSNSGMFKDSESSQDLDKLTEAEKSKVTAVRCKKCRTKLALSTSFIAHDPPSKESSEGHFIKRAANSHRIIDIQESQANCSHFFIEPLKWMQPELQGKQELEGKFSCPGCSSKVGGYNWKGSRCSCGKWVIPAIHLQTSKVDQFPLQSTALPNMVNFESEKVNR

How the values were obtained:
Experiment in all cases: cryo-EM structure
[1] = target: T1, uL16 P-site loop mutant (uL16^mut), C-terminally Flag-tagged (yeast (S. cerevisiae))
[2] = target: Tif6-V192F (S. cerevisiae (bypass strain)) (UniProt Q12522)
[3] = target: eL19 (S. cerevisiae (endogenous in BY4741-derived yeast)) (UniProt P0CX82)
[4] = target: T1, uL16 P-site loop mutant (uL16^mut), C-terminally Flag-tagged (yeast (S. cerevisiae)); remark: listed apart in the source
[5] = target: uL23 (S. cerevisiae (endogenous in BY4741-derived yeast)) (UniProt P04456)

| Molecule | binding [1] | binding [4] | also measured |
| --- | --- | --- | --- |
| Tif6-V192F (from UniProt Q12522 1-245) | binds |  |  |
| Tif6 (from UniProt Q12522 1-245) | binds |  |  |
| B1 | binds | binds | binding [2]: binds; binding [3]: binds; binding [5]: binds |
| B2 | binds |  |  |
| B3 |  | binds |  |
| B4 |  | binds |  |
